# Source: PubChem BioAssay AID1259286 (Sanger Institute, 2017)
# Purpose: 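Kinases whose loss adds to targeted drug killing of colorectal cancer cells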 (primary screen)
# Cells: NCI-H630 human colorectal cancer cells
# Reagent: siRNA pool against human genes
# Conditions: anchor drugs BYL719 at 1 µM, cetuximab at 5 µg/ml or trametinib at 10 nM, or DMSO vehicle alone; exposure time not given
# Detection: 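Viability relative to non-targeting pool wells, averaged over replicates, with robust z-score for knock-down alone and a synergy score for each anchor drug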
# Reading the numbers: viability z-score, knock-down alone: higher = more viable cells, weaker knock-down effect; viability vs control, knock-down alone: higher = more viable cells; synergy score with trametinib: higher = stronger synergistic killing with trametinib; synergy score with BYL719: higher = stronger synergistic killing with BYL719; synergy score with cetuximab: higher = stronger synergistic killing with cetuximab
# Active means: 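Essential call: robust z-score of viability with siRNA alone lower than -3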
# Calls: active = essential when knocked down alone; inactive = not essential alone
# This is an unselected part of 794 deposited reagents. 17 of all reagents (2.1%) were called active. 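Calls use knock-down alone only; synergy above 0.15 marked separately; viability seems capped at control level; exposure time not given.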 Reagent sequences are not shown. Not stated in the record: the amount of reagent, the time to read-out.
gene,"viability z-score, knock-down alone","viability vs control, knock-down alone (fraction of control)",synergy score with trametinib,synergy score with BYL719,synergy score with cetuximab,Call
SGK1 (serum/glucocorticoid regulated kinase 1),-0.232,0.974,-0.0729,-0.0132,0.0417,inactive
RIPK1 (receptor interacting serine/threonine kinase 1),0.464,1,-0.0479,-0.0452,0.0594,inactive
DCK (deoxycytidine kinase),-4,0.831,-0.192,0.14,-0.0169,active
PIK3C2A,0.464,1,0.0438,0.0212,0.0389,inactive
RET (ret proto-oncogene),0.464,1,-0.0479,-0.081,0.0732,inactive
PAPSS1 (3'-phosphoadenosine 5'-phosphosulfate synthase 1),0.464,1,-0.0479,-0.04,0.0138,inactive
DAPK2 (death associated protein kinase 2),0.464,1,-0.0344,0.00866,0.0105,inactive
CDK10 (cyclin dependent kinase 10),0.414,0.998,0.0639,0.0138,-0.0107,inactive
GCK (glucokinase),0.233,0.991,-0.0423,-0.0208,0.0368,inactive
ACVR1B (activin A receptor type 1B),0.464,1,-0.0479,-0.0547,0.0503,inactive
PAK4 (p21 (RAC1) activated kinase 4),0.464,1,-0.0459,-0.0814,-0.0102,inactive
STK32B (serine/threonine kinase 32B),-2.09,0.904,-0.123,-0.0605,-0.0441,inactive
CAMK2B (calcium/calmodulin dependent protein kinase II beta),0.464,1,-0.0425,0.0028,-0.0595,inactive
SPHK1 (sphingosine kinase 1),-0.6,0.96,-0.0719,0.0698,0.0365,inactive
PIP4K2C (phosphatidylinositol-5-phosphate 4-kinase type 2 gamma),0.464,1,-0.0479,0.00899,0.0933,inactive
CLSPN (claspin),-0.466,0.965,0.0311,0.11,0.142,inactive
BMPR2 (bone morphogenetic protein receptor type 2),0.0746,0.985,-0.0493,0.0173,0.0546,inactive
EPHA10 (EPH receptor A10),0.464,1,-0.041,-0.00216,0.0804,inactive
CHEK1 (checkpoint kinase 1),-2.59,0.884,0.0353,0.109,0.0775,inactive
HIPK2 (homeodomain interacting protein kinase 2),-0.0588,0.98,-0.0667,-0.0546,0.0415,inactive

Not a retest: 2 of the entries above.
gene,"viability z-score, knock-down alone","viability vs control, knock-down alone (fraction of control)",synergy score with trametinib,synergy score with BYL719,synergy score with cetuximab,Call
PAK4 (p21 (RAC1) activated kinase 4),0.464,1,-0.0459,-0.0814,-0.0102,inactive
STK32B (serine/threonine kinase 32B),-2.09,0.904,-0.123,-0.0605,-0.0441,inactive
